# Results from patent publication US20250223342A1 (ARGENX, published 2025).
# By UniProt entry, the sequences of proteins in these tests, tags left out. Residues count along the entry.
# UniProt P02768, residues 211-403: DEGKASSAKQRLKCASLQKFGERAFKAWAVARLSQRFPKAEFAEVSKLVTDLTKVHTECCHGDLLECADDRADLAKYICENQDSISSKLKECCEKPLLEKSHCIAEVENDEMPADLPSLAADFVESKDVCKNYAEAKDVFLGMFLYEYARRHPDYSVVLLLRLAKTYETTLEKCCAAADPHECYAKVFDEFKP
# No constants are given. Whether binding was seen depends on the method and setting. Some binding calls cover weakened binding; strength is not graded here.
# Target: isolated DII of serum albumin (UniProt P02768)
# Test: DII binder column of the clone screening
binder,measurement,value
9F02 (VHH) VHH: EVQLVESGGGLVQAGGSLRLSCTASRRAFIGYAMGWFRQAPGKEREFVAAISWFAGDTTDYADSVKGRFTISRDNAKNTVYLQMNGLKPEDTAVYVCAASSARPMSGRSDEYHYWGQGTQVTVSS,binding,binds
9E10 (VHH) VHH: QLQVVESGGGLVQAGGSLRLSCTTSGRAFIGYAMGWFRQAPGKEREFVAAISWFAGDTTDYANSVKGRFTISRDNAKNTVYLQMNSLKPEDTAVYVCAASSARPLSSRSDEYHYWGQGTQVTVSS,binding,binds
"11C03 (VHH, also called 11C03 parental (VHH)) VHH: QLQVVESGGGLVQAGGSLRLSCAASERTFVAYPMGWFRQAPEKEREFVAGISWFAGATTDYADSVEGRFTISRDNAKNTAYLQMNNLKPEDTAVYYCAISHQLPGGRPGRDMDSYSYWGHGTQVTVSS",binding,binds
